# In PubChem BioAssay AID493014 (National Center for Advancing Translational Sciences (NCATS), 2011):
# The whole screen tested about 340,000 compounds, of which about 170 (0.05%) were called active. This list was built around the results that the source calls inconclusive (neither active nor inactive); the mix of calls is not that of the screen. Calls come from the whole dose curve; as a rule, active = well fitted inhibition curve with a large enough effect in the signal ratio, with a control signal flat (not every such curve was filed as active); inconclusive = small, poorly fitted or top-dose-only effect, or effect the other way, or a change in a side signal; inactive = flat fitted curve, though single readings scatter; the % refers to the signal ratio. Potencies beside an inconclusive call are fits to weak or partial responses and may not hold up.
# Assay: qHTS Assay to Find Inhibitors of Chronic Active B-Cell Receptor Signaling;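 for activity change, negative = inhibition: plate controls were basal doxycycline-induced cells for no effect and cells given 10 µM MG132 for full effect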
# Settings: ABC-DLBCL IkBa-CBG/CBR reporter, luminescence ratio (green luciferase fused to IkBa over red control in TMD8 lymphoma cells), 4 h; activity change, negative = inhibition: at 46.1 µM (top of the series)
# How it was run: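 Doxycycline induced both beetle luciferases in TMD8 lymphoma cells; IKK-driven degradation limits the IkappaBalpha-fused green signal, while red luminescence normalises for cell number and nonspecific effects. Compounds tested up to 46 uM, 4 hrs.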
# Potency is the fitted concentration of half-maximal effect.
SMILES,"activity change, negative = inhibition",Potency
Cc1cc(O)c(CN(C)C)c2c1C(=O)/C(=C/c1ccco1)O2,inactive,
O=C(NCc1ccc(F)cc1F)c1cc(COc2c(F)cccc2F)on1,inconclusive: 8.5%,
Cc1ncc(CN2CCN(Cc3ccccc3)C(CCO)C2)s1 (stereo unspecified),inactive,
O=C(N/N=C\c1ccc(CN(Cc2ccc(Cl)cc2)S(=O)(=O)c2ccccc2)o1)C(=O)Nc1ccc(F)cc1,,"inconclusive: 4.61 µM [falling, partial curve]"
O=c1c2ccccc2nnn1Cc1ccc2ccccc2c1,,"inconclusive: 12.6 µM [falling, partial curve]"
COc1ccc(OC)c(-c2nnc(NC(=O)C(C)Sc3nncn3C)s2)c1 (stereo unspecified),inconclusive: -2.61%,
CCCCCCc1cc2cc(S(=O)(=O)c3ccc(Cl)cc3)c(=O)oc2cc1O,inactive,
Cc1cc(C(=O)N/N=C\C(Br)=C\c2ccccc2)c(C)o1,,"inconclusive: 28.2 µM [falling, single point]"
O=C(Nc1cc(N2CCOCC2)ncn1)c1ccc(F)cc1,,"inconclusive: 35.5 µM [falling, single point]"
O=S(=O)(Nc1nc2ccc(Cl)cc2s1)c1cccs1,inconclusive: 17.3%,
COc1ccc(CCNC(=O)c2cc3c(=O)n4ccccc4nc3n(C3CCCCC3)c2=N)cc1,inconclusive: 0.817%,
O=C(Nc1cccc(NC(=O)c2cccs2)c1)c1cccnc1,inconclusive: -8.39%,
Cc1cc(NC(=O)/C=C/c2ccc(F)cc2)n(-c2nc3ccccc3[nH]2)n1,inconclusive: -6.41%,
COc1cccc(NC(=O)c2ccc(NCCCN3CC(C)CC(C)C3)c([N+](=O)[O-])c2)c1 (stereo unspecified),,"inconclusive: 15.8 µM [falling, partial curve]"
O=C(CSc1nc2ccc([N+](=O)[O-])cc2[nH]1)NC1CCCCCC1,inconclusive: -8.9%,
COc1ccc(C(=O)NCCCn2nc(C)cc2C)cc1S(=O)(=O)N1CCOCC1,inconclusive: -0.0044%,
CSc1ccc(/C=N/S(=O)(=O)c2ccccc2)cc1,inconclusive: 0.232%,
O=C(N/C(=C/c1ccccc1Cl)C(=O)N1CCCC1)c1ccccc1,,"inconclusive: 35.5 µM [falling, single point]"
Cc1cnc(NC(=O)c2ccc(Cl)nc2)s1,,"inconclusive: 3.55 µM [rising, partial curve]"
CCCCc1ccccc1NC(=S)NC1CCCC1,inactive,
CC(=O)Nc1c(C(=O)N2CCOCC2)cnn1-c1ccc(C)c(C)c1,,"inconclusive: 22.4 µM [falling, single point]"
Oc1c(C=NCc2ccncc2)sc2ccccc12,,"inconclusive: 25.9 µM [falling, partial curve]"
NC(=NC(=O)c1ccc(OCC(F)(F)F)nc1)c1ccccc1,inconclusive: 12.7%,
COc1ccc(S(=O)(=O)N2CCCCC2)cc1NC(=O)C1CC1C (stereo unspecified),inactive,
O=C(Nc1cnc2ccccc2c1)c1ccco1,,"inconclusive: 35.5 µM [falling, single point]"
CC(NC(=O)c1cc(S(=O)(=O)N2CCCC2)cn1C)c1ccccc1 (stereo unspecified),,"inconclusive: 35.5 µM [falling, single point]"

# One compound at a time, as listed above.
# `O=S(=O)(Nc1nc2ccc(Cl)cc2s1)c1cccs1` is listed with activity change, negative = inhibition: inconclusive: 17.3%
# `NC(=NC(=O)c1ccc(OCC(F)(F)F)nc1)c1ccccc1` is listed with activity change, negative = inhibition: inconclusive: 12.7%
# `O=C(CSc1nc2ccc([N+](=O)[O-])cc2[nH]1)NC1CCCCCC1` is listed with activity change, negative = inhibition: inconclusive: -8.9%
# `O=C(N/N=C\c1ccc(CN(Cc2ccc(Cl)cc2)S(=O)(=O)c2ccccc2)o1)C(=O)Nc1ccc(F)cc1` is listed with Potency: inconclusive: 4.61 µM [falling, partial curve]

# The results go on:

SMILES,"activity change, negative = inhibition",Potency
CCOC(=O)C1CCN(Cc2c(C(=O)N3CCOCC3)nc3c(C)cccn23)CC1,inconclusive: 2.7%,
COc1ccc(CN2CCN(Cc3ccc(C)cc3)C(CCO)C2)cc1OC (stereo unspecified),inconclusive: -55%,
CC(C)(C)c1csc(NC(=O)C2COc3ccccc3O2)n1 (stereo unspecified),inactive,
CCOC(=O)Cn1c(CN2CCc3ccccc3C2)nc2c1c(=O)n(C)c(=O)n2C,inconclusive: 0.768%,
Cc1ccc(NC(=O)CN(C)C(=O)COc2ccccc2-c2ccccc2)cc1,,"inconclusive: 29.1 µM [falling, single point]"
C[C@H](CO)N1C[C@H](C)[C@@H](CN(C)S(=O)(=O)c2cccs2)Oc2c(NS(=O)(=O)c3ccccc3)cccc2C1=O,inactive,
Oc1ccc(Br)cc1-c1n[nH]c(=S)n1Cc1ccccc1,inactive,
CCOC(=O)C1(Cc2cccc(F)c2)CCN(C(=O)C2CCOCC2)CC1,inconclusive: 9.77%,
C=Cn1cc[n+](CC(=O)c2ccc(C)cc2)c1,,"inconclusive: 35.5 µM [falling, single point]"
Cn1cc(/C=C/c2nc3ccccc3c(=O)n2-c2cccc([N+](=O)[O-])c2)c2ccccc21,,"inconclusive: 1.84 µM [rising, partial curve, poor fit]"
Cc1ccc(-c2cc3nc(-c4ccccc4)cc(N)n3n2)cc1,inconclusive: 5.13%,
CCCCC(=O)Nc1ccc(C(=O)NNC(=S)NC(=O)c2cccs2)cc1,inconclusive: -0.392%,
CCOc1cc(/C=N/NC(=O)c2ccc(O)cc2)ccc1Oc1nc(Cl)ncc1F,,"inconclusive: 6.31 µM [falling, partial curve]"
Cc1cccc(NC(=O)c2ccc(N3C(=O)C4C5C=CC(C6CC56)C4C3=O)cc2)c1 (stereo unspecified),inconclusive: 15.1%,
COC(=O)CNC(c1ccccc1)c1cc(Cl)ccc1NC(=O)c1cccc(Cl)c1 (stereo unspecified),inconclusive: 3.94%,
Cc1cc(C)c(S(=O)(=O)/N=C2/C=C(Sc3ncn[nH]3)C(=O)c3ccccc32)cc1C,,"inconclusive: 2.31 µM [falling, partial curve, poor fit]"
CC1=CC(C)(C)Nc2ccc(OC(=O)c3ccco3)cc21,,"inconclusive: 5.62 µM [falling, single point]"
O=C(CCS(=O)(=O)Cc1ccccc1)Nc1nc2c(s1)CCCC2,,"inconclusive: 18.4 µM [falling, partial curve, poor fit]"
CCOc1ccc(/C=N/NC(=O)c2ccccc2O)cc1CN1CC2CC(C1)c1cccc(=O)n1C2 (stereo unspecified),,"inconclusive: 25.9 µM [rising, single point]"
CC(=O)Nc1ccc(NC(=O)C(C)OC(=O)C2(c3ccc(F)cc3)CCCC2)cc1 (stereo unspecified),inconclusive: 3.4%,
CCOC(=O)C1(Cc2cccc(OC)c2)CCN(Cc2cccnc2)CC1,,"inconclusive: 35.5 µM [rising, single point]"
CCn1c(NC(=O)c2nn(C)cc2Br)nc2ccccc21,,"inconclusive: 32.6 µM [falling, partial curve, poor fit]"
COc1cccc(C(=O)Nc2ccc(NC(C)=O)cn2)c1,inconclusive: 235%,
Cc1cccc(NC(=O)/C=C/c2ccc(Cl)cc2)n1,,"inconclusive: 2.59 µM [falling, partial curve]"
CCC(c1nnnn1C(C)(C)CC)N(CCCN1CCOCC1)Cc1cc2cccc(C)c2[nH]c1=O (stereo unspecified),,"inconclusive: 29.1 µM [falling, single point]"
COc1ccccc1CNS(=O)(=O)c1cc2c3c(c1)CCN3C(=O)CC2,inconclusive: -1.77%,

SMILES,"activity change, negative = inhibition",Potency
CCc1ccc(C(O)(CNCc2ccccc2)c2ccccc2)cc1 (stereo unspecified),inconclusive: -0.036%,
COc1ccc(Cl)cc1NC(=O)CN(C)CC(=O)Nc1ccccc1N1CCOCC1,,"inconclusive: 12.6 µM [cytotoxic, partial curve]"
CC1CCc2[nH]c3ccc(C(=O)N(C)CC(=O)Nc4ccccc4C(F)(F)F)cc3c2C1 (stereo unspecified),,"inconclusive: 10.3 µM [rising, partial curve]"
Cc1ccc(/C=[N+](/C)[O-])cc1,,"inconclusive: 35.5 µM [falling, single point]"
CC(C)c1ccc(S(=O)(=O)N2CCN(C(=O)c3cccc(F)c3)CC2)cc1,inconclusive: -2.5%,
Oc1c(Cl)cc(Cl)cc1C=Nc1ccc2c(c1)OCCO2,inactive,
Cn1cccc1CC(=O)NNC(=O)Nc1ccccc1F,inconclusive: -1.77%,
Cc1cc(C)cc(OCC(=O)OCC(=O)NC2CCCC2)c1,inconclusive: 5.99%,
COc1ccc(-c2nc(C(=O)NCC3CCCO3)cc3c2[nH]c2ccccc23)cc1 (stereo unspecified),inconclusive: 29.5%,
CCN(Cc1cnn(C)c1)C(=O)c1ccc2nc(Cc3cccc(Cl)c3)oc2c1,inconclusive: -0.425%,
CN(C)c1ccc(N/C=C/C(=O)c2ccccc2)cc1,,"inconclusive: 29.1 µM [falling, single point]"
CC(C)C(NC(=O)c1cccs1)c1nnc(SCC(=O)Nc2nccs2)n1C (stereo unspecified),inconclusive: 9.64%,
C/C(=N\NC(=O)C1CCCN(S(=O)(=O)c2ccccc2)C1)c1ccccn1 (stereo unspecified),inconclusive: -7.68%,
Cc1ccc(CN(C)C(=O)c2ccccc2NC(=O)c2ccccc2)o1,inactive,
CCNC(=S)N(CCc1c(C)[nH]c2ccc(C)cc12)Cc1cccs1,inconclusive: 4.85%,
COc1cc2ccc(=O)oc2cc1OCC(O)C(C)(C)O (stereo unspecified),inactive,
CC(C)OC(=O)c1c(NC(=O)C2CC=CCC2C(=O)O)sc2c1CCCCC2 (stereo unspecified),inconclusive: 12.3%,
CC(C)OCCCN1CC(=O)N2C(c3ccccc3)c3[nH]c4ccccc4c3C[C@H]2C1=O (stereo partly specified),inactive,
Cc1nc(NCc2ccccc2)sc1C(=O)Nc1ccccc1,inconclusive: -7.07%,
Cc1ccc(N2CC(C(=O)Nc3ccc(Br)cc3)CC2=O)cc1 (stereo unspecified),,"inconclusive: 0.631 µM [rising, full curve, poor fit]"
COc1ccc(-n2ncc3c(NCCC4=CCCCC4)ncnc32)cc1,inconclusive: 11%,
O=C(c1ccc([N+](=O)[O-])s1)N1CCN(c2ccc(C(F)(F)F)cn2)CC1,inactive,
CC1=Nc2ccccc2/C1=C/c1c(N)n2c(S(=O)(=O)CC(C)C)nsc2nc1=O,inconclusive: -20%,
C/C(=N\NC(=O)c1ccc(OC2OCCOC2Oc2ccc(C(=O)N/N=C(\C)c3ccncc3)cc2)cc1)c1ccncc1 (stereo unspecified),,"inconclusive: 0.355 µM [falling, partial curve, poor fit]"
